Laboratory results: PubChem BioAssay AID1259254 (NCATS, 2017)
This is a random part of about 59,000 deposited reagents. About 1,550 of them (2.6%) were called active. 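G2 share is only a proxy for re-replication; each gene was hit by three separate siRNAs, and active genes were retested.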 Raw values vary from plate to plate and are shown uncorrected. Reagents against one gene are numbered here. Not stated in the record: the amount of reagent.

Screen: 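Genome-wide screen for genes that prevent DNA re-replication in cancer cells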 (primary screen)
Cells: human HCT116 colorectal cancer cells
Reagent: single siRNA against human genes
Time to read-out: 3 days
Measured: 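Imaged Hoechst DNA stain sorts each cell into a cycle phase by DNA amount; per plate, G2 fraction set to 0% for non-targeting and 100% for GMNN siRNA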
Reading the numbers: G2 robust z-score and G2 cells, % of GMNN control: higher = more G2 cells, more excess DNA replication; raw share of cells in G2: higher = larger share of cells with G2 DNA content
Active means: 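Active siRNAs have a G2 robust z of 5 or more median absolute deviations over the median, which in these data means about 38% or higher of GMNN control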

| gene | reagent no. | G2 robust z-score | G2 cells, % of GMNN control | raw share of cells in G2 (%) | Call |
| --- | --- | --- | --- | --- | --- |
| EEF1G (eukaryotic translation elongation factor 1 gamma) | 1 | 1.97 | 16.9 | 11.4 | inactive |
| EEF1G (eukaryotic translation elongation factor 1 gamma) | 2 | -0.341 | 0.567 | 5.48 | inactive |
| EEF1G (eukaryotic translation elongation factor 1 gamma) | 3 | 1.51 | 13.6 | 8.49 | inactive |
| C6orf136 (chromosome 6 open reading frame 136) | 1 | 2.14 | 18 | 10.1 | inactive |
| C6orf136 (chromosome 6 open reading frame 136) | 2 | -0.845 | -2.98 | 2.11 | inactive |
| C6orf136 (chromosome 6 open reading frame 136) | 3 | 5.02 | 38.3 | 15.4 | active |
| OR10P1 (olfactory receptor family 10 subfamily P member 1) | 1 | 0.357 | 5.48 | 6.29 | inactive |
| OR10P1 (olfactory receptor family 10 subfamily P member 1) | 2 | 0.0314 | 3.19 | 4.28 | inactive |
| OR10P1 (olfactory receptor family 10 subfamily P member 1) | 3 | 3.39 | 26.9 | 9.67 | inactive |
| MARS2 (methionyl-tRNA synthetase 2, mitochondrial) | 1 | 0.305 | 5.11 | 7.16 | inactive |
| MARS2 (methionyl-tRNA synthetase 2, mitochondrial) | 2 | -0.0453 | 2.65 | 6.9 | inactive |
| MARS2 (methionyl-tRNA synthetase 2, mitochondrial) | 3 | -0.37 | 0.367 | 4.62 | inactive |
| ZNF723 (zinc finger protein 723) | 1 | 3.81 | 29.8 | 15 | inactive |
| ZNF723 (zinc finger protein 723) | 2 | 0.0177 | 3.09 | 4.37 | inactive |
| ZNF723 (zinc finger protein 723) | 3 | 0.596 | 7.16 | 5.32 | inactive |
| PPFIA3 (PPFI scaffold protein A3) | 1 | -1.01 | -4.17 | 3.21 | inactive |
| PPFIA3 (PPFI scaffold protein A3) | 2 | -0.747 | -2.29 | 4.46 | inactive |
| PPFIA3 (PPFI scaffold protein A3) | 3 | 1.3 | 12.1 | 10 | inactive |
| LRRC31 (leucine rich repeat containing 31) | 1 | 0.163 | 4.12 | 6.15 | inactive |
| LRRC31 (leucine rich repeat containing 31) | 2 | 1.53 | 13.7 | 10.3 | inactive |
| LRRC31 (leucine rich repeat containing 31) | 3 | -0.3 | 0.858 | 2.61 | inactive |
| DNAJC10 (DnaJ heat shock protein family (Hsp40) member C10) | 1 | -0.482 | -0.423 | 5.76 | inactive |
| DNAJC10 (DnaJ heat shock protein family (Hsp40) member C10) | 2 | -1.21 | -5.56 | 1.67 | inactive |
| DNAJC10 (DnaJ heat shock protein family (Hsp40) member C10) | 3 | 1.45 | 13.2 | 9.11 | inactive |
| TSG101 (tumor susceptibility 101) | 1 | 1.1 | 10.7 | 10.1 | inactive |
| TSG101 (tumor susceptibility 101) | 2 | 0.83 | 8.8 | 7.37 | inactive |
| TSG101 (tumor susceptibility 101) | 3 | 2.09 | 17.7 | 10.8 | inactive |
| IER2 (immediate early response 2) | 1 | 2.86 | 23.1 | 15.8 | inactive |
| IER2 (immediate early response 2) | 2 | -0.089 | 2.34 | 4.92 | inactive |
| IER2 (immediate early response 2) | 3 | -0.155 | 1.88 | 4.09 | inactive |

Just “raw share of cells in G2 (%)” (4 entries from above):
OR10P1 (olfactory receptor family 10 subfamily P member 1) #2: 4.28
OR10P1 (olfactory receptor family 10 subfamily P member 1) #3: 9.67
MARS2 (methionyl-tRNA synthetase 2, mitochondrial) #1: 7.16
MARS2 (methionyl-tRNA synthetase 2, mitochondrial) #2: 6.9
